Results: PMC2824750
Results are given in words; binding and its absence hold for the method and conditions named. In cells and extracts the contact can be indirect. Some binding calls cover weakened binding; strength is not graded here. Sequences can lack the tags named with a protein.

Sequences of proteins named here, by UniProt entry; tags and fusion partners are left off. A change or cut given only in a name is not applied to a line headed by its entry. A line that says so, or that is headed by a name, gives the form on record, which may keep a tag or linker.
in vitro translated 35S-labelled Drosophila Dnmt2 (TNT-dDnmt2) (Q9VKB3, form named): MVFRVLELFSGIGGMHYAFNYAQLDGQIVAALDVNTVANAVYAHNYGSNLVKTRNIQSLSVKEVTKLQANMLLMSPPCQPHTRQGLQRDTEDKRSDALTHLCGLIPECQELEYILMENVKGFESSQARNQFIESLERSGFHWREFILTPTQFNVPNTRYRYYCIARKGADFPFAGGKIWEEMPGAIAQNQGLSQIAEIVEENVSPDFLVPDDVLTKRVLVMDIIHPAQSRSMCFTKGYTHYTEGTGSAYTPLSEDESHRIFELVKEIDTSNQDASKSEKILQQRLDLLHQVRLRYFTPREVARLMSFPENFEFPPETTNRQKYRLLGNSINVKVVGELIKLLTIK

Molecular target: T1, GST-Ehenolase (E. histolytica) (UniProt P51555)
T1 sequence: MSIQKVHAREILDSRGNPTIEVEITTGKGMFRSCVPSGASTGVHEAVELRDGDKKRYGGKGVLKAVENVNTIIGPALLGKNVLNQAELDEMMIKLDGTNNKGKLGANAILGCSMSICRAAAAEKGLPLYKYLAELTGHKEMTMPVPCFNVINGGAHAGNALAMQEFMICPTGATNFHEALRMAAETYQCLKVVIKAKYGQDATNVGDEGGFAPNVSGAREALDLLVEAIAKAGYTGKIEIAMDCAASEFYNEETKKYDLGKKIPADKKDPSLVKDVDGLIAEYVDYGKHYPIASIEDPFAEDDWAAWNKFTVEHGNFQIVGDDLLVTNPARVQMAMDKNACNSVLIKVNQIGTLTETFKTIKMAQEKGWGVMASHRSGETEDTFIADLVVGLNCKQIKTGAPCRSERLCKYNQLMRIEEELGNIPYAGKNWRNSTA
Assay: pull-down; glutathione beads coated with GST-Enolase or GST (20–50 µg) incubated with in vitro translated 35S-methionine-labelled protein (15 µl TNT reaction) in 20 mM Hepes pH 7.9, 100 mM NaCl, 1 mM DTT, 6 mM MgCl2, 20% glycerol, 1% Nonidet P40, 0.5 mM EDTA, one hour at room temperature; autoradiography; only the target purified

With “in vitro translated 35S-labelled Drosophila Dnmt2 (TNT-dDnmt2) (from UniProt Q9VKB3 1-345) (enzyme)” the binding was “binds”.

B1: in vitro translated 35S-labelled human Dnmt2 (TNT-hDnmt2) (enzyme, UniProt O14717-1 1-391)
chain: MEPLRVLELYSGVGGMHHALRESCIPAQVVAAIDVNTVANEVYKYNFPHTQLLAKTIEGITLEEFDRLSFDMILMSPPCQPFTRIGRQGDMTDSRTNSFLHILDILPRLQKLPKYILLENVKGFEVSSTRDLLIQTIENCGFQYQEFLLSPTSLGIPNSRLRYFLIAKLQSEPLPFQAPGQVLMEFPKIESVHPQKYAMDVENKIQEKNVEPNISFDGSIQCSGKDAILFKLETAEEIHRKNQQDSDLSVKMLKDFLEDDTDVNQYLLPPKSLLRYALLLDIVQPTCRRSVCFTKGYGSYIEGTGSVLQTAEDVQVENIYKSLTNLSQEEQITKLLILKLRYFTPKEIANLLGFPPEFGFPEKITVKQRYRLLGNSLNVHVVAKLIKILYE
modifications: 35S labelled
For B1, the binding was “binds”.
